{
  "sequences": {"note": "By UniProt entry, the sequences of proteins in these tests, tags left out. Where a name states a change or a piece, a line headed by the entry shows the natural chain unless it says otherwise.", "UniProt Q9HD23": "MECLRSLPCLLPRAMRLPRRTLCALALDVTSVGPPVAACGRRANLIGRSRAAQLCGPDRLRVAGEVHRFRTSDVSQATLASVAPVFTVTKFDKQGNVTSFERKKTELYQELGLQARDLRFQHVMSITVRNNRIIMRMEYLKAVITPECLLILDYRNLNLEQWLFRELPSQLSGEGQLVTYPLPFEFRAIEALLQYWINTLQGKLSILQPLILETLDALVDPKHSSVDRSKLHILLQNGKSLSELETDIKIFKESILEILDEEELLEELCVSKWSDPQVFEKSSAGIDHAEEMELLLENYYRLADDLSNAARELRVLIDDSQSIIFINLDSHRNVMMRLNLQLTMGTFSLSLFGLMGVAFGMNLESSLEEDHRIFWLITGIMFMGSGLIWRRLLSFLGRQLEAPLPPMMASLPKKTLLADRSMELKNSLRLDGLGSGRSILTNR", "UniProt Q13496": "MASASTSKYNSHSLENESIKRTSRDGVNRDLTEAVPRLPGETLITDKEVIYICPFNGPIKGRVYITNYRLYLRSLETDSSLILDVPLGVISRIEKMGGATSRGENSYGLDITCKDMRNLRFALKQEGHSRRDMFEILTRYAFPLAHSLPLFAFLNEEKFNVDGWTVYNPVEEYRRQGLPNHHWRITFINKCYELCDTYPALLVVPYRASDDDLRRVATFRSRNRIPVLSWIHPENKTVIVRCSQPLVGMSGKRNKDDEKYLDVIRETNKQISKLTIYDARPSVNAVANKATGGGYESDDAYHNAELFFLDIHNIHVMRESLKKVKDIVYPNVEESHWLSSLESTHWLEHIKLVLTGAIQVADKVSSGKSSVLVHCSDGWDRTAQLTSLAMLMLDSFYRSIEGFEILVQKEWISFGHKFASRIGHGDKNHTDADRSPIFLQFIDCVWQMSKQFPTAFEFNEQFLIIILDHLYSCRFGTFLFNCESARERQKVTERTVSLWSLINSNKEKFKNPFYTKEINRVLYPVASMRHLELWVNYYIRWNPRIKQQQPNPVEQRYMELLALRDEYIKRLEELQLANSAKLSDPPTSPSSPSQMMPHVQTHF", "UniProt Q9Y3D2": "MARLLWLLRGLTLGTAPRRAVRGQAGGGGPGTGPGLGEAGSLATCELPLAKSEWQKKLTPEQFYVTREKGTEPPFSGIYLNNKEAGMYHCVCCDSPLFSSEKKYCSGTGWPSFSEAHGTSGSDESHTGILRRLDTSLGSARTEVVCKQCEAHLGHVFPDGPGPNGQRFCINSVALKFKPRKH", "UniProt Q13330": "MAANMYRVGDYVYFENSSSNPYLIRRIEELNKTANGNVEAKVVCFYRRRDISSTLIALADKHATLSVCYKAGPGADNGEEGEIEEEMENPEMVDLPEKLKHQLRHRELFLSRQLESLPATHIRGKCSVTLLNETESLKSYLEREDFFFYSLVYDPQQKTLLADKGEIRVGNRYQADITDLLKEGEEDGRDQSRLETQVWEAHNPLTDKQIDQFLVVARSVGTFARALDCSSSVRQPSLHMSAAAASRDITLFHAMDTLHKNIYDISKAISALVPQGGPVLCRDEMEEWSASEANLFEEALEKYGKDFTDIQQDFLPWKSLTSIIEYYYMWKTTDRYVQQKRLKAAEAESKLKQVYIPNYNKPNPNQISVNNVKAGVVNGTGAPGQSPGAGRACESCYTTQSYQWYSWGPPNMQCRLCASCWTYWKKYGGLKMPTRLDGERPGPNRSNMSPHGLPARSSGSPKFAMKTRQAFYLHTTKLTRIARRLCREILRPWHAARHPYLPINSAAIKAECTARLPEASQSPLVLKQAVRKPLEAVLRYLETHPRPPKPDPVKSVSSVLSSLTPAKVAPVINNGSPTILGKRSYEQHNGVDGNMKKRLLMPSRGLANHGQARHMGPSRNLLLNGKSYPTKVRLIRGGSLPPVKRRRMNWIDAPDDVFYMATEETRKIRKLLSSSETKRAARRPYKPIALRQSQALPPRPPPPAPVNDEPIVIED", "UniProt Q96DH6": "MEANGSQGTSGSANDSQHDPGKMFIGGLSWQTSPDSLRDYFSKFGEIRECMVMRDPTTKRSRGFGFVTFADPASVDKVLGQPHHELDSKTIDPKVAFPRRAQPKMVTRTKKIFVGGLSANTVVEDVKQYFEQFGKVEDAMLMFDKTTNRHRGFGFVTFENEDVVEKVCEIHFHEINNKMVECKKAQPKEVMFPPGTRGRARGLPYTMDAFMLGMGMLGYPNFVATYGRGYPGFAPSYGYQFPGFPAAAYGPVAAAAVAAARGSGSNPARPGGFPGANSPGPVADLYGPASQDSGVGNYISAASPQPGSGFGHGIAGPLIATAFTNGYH", "UniProt P26038, whole entry, looked up": "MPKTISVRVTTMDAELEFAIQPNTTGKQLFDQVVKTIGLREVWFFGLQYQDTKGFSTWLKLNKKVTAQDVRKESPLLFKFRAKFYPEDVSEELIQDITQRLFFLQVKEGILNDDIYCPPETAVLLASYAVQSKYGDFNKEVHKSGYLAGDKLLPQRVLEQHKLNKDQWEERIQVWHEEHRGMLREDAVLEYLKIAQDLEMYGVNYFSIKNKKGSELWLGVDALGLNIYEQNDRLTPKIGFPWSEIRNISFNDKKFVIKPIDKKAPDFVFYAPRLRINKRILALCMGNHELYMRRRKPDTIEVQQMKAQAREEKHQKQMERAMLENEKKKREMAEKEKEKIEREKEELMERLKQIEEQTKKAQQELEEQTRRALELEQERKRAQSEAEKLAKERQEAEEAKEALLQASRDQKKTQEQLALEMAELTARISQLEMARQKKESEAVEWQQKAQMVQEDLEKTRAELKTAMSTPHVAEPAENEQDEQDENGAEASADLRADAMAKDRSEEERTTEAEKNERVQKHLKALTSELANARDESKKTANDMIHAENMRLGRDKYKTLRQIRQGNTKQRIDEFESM", "UniProt Q99707": "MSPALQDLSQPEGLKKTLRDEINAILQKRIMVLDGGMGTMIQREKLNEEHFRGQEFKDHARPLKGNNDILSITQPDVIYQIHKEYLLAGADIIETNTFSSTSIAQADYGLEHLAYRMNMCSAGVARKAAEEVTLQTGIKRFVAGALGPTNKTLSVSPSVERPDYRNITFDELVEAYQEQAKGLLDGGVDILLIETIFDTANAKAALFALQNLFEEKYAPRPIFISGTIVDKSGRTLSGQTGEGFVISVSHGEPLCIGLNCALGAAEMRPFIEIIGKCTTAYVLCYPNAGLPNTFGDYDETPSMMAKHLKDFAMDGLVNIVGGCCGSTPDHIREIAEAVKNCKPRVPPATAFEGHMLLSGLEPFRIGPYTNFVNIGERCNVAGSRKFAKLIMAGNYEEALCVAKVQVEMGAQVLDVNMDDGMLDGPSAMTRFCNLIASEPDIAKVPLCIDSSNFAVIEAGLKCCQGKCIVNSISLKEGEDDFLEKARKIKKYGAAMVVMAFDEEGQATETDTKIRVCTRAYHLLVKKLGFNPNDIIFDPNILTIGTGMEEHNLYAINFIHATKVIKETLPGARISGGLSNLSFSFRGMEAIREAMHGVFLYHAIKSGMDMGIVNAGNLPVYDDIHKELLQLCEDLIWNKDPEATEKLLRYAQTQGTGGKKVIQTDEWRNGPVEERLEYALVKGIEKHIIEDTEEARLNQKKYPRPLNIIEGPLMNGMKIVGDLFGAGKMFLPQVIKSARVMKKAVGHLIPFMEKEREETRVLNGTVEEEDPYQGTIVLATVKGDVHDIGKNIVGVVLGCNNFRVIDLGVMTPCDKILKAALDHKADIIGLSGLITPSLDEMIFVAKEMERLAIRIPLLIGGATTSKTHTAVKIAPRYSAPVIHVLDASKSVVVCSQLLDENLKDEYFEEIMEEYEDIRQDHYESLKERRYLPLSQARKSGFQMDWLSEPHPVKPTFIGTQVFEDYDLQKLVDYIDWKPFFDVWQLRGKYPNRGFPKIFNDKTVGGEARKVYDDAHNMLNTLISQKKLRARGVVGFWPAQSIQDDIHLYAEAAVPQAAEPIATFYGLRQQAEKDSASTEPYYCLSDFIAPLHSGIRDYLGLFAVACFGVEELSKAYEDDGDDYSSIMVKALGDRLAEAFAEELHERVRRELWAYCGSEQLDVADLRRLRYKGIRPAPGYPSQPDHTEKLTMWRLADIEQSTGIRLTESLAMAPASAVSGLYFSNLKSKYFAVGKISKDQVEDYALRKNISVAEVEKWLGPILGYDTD", "UniProt P13995": "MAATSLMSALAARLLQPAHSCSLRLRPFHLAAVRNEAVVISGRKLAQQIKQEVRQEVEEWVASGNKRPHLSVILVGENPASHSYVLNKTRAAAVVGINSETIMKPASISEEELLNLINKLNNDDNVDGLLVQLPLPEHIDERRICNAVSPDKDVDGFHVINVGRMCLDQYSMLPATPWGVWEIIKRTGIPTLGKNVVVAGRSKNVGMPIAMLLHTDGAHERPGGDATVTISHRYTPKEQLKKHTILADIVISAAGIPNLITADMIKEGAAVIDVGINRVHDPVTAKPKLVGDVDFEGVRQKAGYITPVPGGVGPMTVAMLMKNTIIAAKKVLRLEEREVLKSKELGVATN", "UniProt Q6P444": "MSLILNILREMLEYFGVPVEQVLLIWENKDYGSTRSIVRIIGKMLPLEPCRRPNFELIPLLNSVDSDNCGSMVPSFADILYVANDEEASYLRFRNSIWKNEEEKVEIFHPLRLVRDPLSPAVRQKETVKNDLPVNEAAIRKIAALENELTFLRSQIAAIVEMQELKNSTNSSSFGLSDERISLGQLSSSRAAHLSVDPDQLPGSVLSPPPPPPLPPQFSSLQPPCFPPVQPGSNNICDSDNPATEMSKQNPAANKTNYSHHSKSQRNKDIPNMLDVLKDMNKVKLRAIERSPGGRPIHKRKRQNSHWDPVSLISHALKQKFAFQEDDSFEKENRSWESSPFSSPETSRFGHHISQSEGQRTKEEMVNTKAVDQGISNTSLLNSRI", "UniProt P00846": "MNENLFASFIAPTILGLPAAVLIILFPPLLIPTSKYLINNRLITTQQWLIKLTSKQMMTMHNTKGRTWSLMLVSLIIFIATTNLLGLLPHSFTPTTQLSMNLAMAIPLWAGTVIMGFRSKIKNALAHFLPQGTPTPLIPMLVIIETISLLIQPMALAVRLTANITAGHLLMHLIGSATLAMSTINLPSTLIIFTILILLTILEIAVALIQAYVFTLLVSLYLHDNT", "UniProt O94776": "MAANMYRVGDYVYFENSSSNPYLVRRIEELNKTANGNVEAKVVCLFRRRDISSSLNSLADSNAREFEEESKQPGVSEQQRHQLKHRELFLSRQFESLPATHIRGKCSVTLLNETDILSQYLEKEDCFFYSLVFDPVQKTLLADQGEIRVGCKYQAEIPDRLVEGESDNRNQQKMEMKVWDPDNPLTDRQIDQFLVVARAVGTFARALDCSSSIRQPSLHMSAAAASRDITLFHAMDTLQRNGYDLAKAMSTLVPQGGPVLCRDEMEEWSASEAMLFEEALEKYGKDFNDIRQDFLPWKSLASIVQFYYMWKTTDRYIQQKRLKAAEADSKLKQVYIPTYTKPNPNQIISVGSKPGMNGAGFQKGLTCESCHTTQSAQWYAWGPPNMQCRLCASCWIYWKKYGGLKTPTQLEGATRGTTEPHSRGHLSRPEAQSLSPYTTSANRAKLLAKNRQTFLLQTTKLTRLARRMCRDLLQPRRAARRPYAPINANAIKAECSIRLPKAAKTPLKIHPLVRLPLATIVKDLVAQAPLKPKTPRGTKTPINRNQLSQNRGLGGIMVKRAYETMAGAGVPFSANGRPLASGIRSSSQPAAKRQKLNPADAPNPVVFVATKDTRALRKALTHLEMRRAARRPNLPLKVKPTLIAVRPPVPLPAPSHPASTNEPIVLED", "UniProt Q9NZJ7, whole entry, looked up": "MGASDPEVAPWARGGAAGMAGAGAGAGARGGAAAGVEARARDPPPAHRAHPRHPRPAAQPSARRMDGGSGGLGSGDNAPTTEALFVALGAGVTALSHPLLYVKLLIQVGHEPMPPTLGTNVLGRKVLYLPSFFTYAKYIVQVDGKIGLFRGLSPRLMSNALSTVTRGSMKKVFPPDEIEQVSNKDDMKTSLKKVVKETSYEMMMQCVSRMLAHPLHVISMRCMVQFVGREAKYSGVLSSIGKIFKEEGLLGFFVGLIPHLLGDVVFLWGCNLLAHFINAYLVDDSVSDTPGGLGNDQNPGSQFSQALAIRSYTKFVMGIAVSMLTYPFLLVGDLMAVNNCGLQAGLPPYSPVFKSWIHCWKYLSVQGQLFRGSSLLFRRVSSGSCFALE", "UniProt Q13505": "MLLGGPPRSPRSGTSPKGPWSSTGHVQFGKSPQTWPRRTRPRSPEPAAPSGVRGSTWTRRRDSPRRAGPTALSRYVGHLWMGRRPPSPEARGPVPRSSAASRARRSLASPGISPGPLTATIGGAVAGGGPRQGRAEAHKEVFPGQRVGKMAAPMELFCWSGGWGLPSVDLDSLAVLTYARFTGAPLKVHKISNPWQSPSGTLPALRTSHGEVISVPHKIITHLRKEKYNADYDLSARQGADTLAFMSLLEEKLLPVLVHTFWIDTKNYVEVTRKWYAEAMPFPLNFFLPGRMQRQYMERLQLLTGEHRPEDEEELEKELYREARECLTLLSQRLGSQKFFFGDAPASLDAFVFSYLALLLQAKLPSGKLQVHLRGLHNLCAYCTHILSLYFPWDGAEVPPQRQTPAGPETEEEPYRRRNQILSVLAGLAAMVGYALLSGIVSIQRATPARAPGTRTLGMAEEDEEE"},
  "source": "the supplement of paper PMC10849652",
  "note": "Some of the results follow.",
  "data": [
    {"compound": "C[C@H](C1=CC=C(C=C1)C(=O)NC2=C3C=CNC3=NC=C2)N", "assay": "log2 fold change, soluble protein after heating vs DMSO (PISA); higher = thermal stabilisation; K562 lysate, 10 uM; active = over 0.2 and 3.5 SD of the protein, either way, in both replicates (recomputed)", "method_in_brief": "(§1)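 K562 pellets were dounce-homogenised in PBS pH 7.4 containing 1 mM MgCl2, and the crude extract, at 1 mg/mL protein, was exposed to 10 μM compound for 30 min. Aliquots were heated for 3 min across 48°C-58°C, pooled, brought to 0.5% NP-40 at 4°C and spun at 21,000xg for 90 min, with the supernatant taken as soluble protein. TMTpro 16plex LC-MS/MS with equalised channel sums quantified that protein. Values are log-two fold changes in thermal stability relative to solvent controls, taken from duplicates.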", "values": [
      {"target": "MRPL4 (UniProt Q9BYD3)", "log2 fold change": "inactive: 0.145"},
      {"target": "MRPS9 (UniProt P82933)", "log2 fold change": "inactive: -0.065"},
      {"target": "MTMR9 (UniProt Q96QG7)", "log2 fold change": "inactive: -0.063"},
      {"target": "MRPL28 (UniProt Q13084)", "log2 fold change": "active: 0.482"},
      {"target": "MRPL41 (UniProt Q8IXM3)", "log2 fold change": "inactive: -0.046"},
      {"target": "MRPS22 (UniProt P82650)", "log2 fold change": "inactive: 0.014"},
      {"target": "MRPL45 (UniProt Q9BRJ2)", "log2 fold change": "inactive: -0.045"},
      {"target": "MRPS18A isoform 2 (UniProt Q9NVS2)", "log2 fold change": "inactive: 0.262"},
      {"target": "MRPL50 (UniProt Q8N5N7)", "log2 fold change": "inactive: -0.11"},
      {"target": "MTIF2 (UniProt P46199)", "log2 fold change": "inactive: 0.055"},
      {"target": "MRS2 (UniProt Q9HD23)", "log2 fold change": "inactive: 0.012"},
      {"target": "MT-ND1 (UniProt P03886)", "log2 fold change": "active: -0.342"},
      {"target": "MRPS30 (UniProt Q9NP92)", "log2 fold change": "inactive: -0.281"},
      {"target": "MTM1 (UniProt Q13496)", "log2 fold change": "inactive: -0.06"},
      {"target": "MRPS18B (UniProt Q9Y676)", "log2 fold change": "inactive: -0.019"},
      {"target": "MRPL32 (UniProt Q9BYC8)", "log2 fold change": "inactive: -0.029"},
      {"target": "MRPS5 (UniProt P82675)", "log2 fold change": "inactive: -0.027"},
      {"target": "MSH6 (UniProt P52701)", "log2 fold change": "inactive: -0.003"},
      {"target": "MSRB2 (UniProt Q9Y3D2)", "log2 fold change": "inactive: 0.027"},
      {"target": "MTA1 (UniProt Q13330)", "log2 fold change": "inactive: 0.001"},
      {"target": "MSI2 (UniProt Q96DH6)", "log2 fold change": "inactive: 0.024"},
      {"target": "MRPL9 (UniProt Q9BYD2)", "log2 fold change": "inactive: -0.003"},
      {"target": "MRPS10 (UniProt P82664)", "log2 fold change": "inactive: -0.066"},
      {"target": "MRPS36 (UniProt P82909)", "log2 fold change": "inactive: -0.162"},
      {"target": "MSN (UniProt P26038)", "log2 fold change": "inactive: 0.005"},
      {"target": "MRPS28 (UniProt Q9Y2Q9)", "log2 fold change": "inactive: 0.07"},
      {"target": "MTR (UniProt Q99707)", "log2 fold change": "inactive: -0.062"},
      {"target": "MTHFD2 (UniProt P13995)", "log2 fold change": "inactive: -0.042"},
      {"target": "MRPS31 (UniProt Q92665)", "log2 fold change": "inactive: -0.002"},
      {"target": "MTFR2 (UniProt Q6P444)", "log2 fold change": "inactive: -0.029"},
      {"target": "MRPL40 (UniProt Q9NQ50)", "log2 fold change": "inactive: 0.031"},
      {"target": "MRPL54 (UniProt Q6P161)", "log2 fold change": "inactive: 0.103"},
      {"target": "MRPL44 (UniProt Q9H9J2)", "log2 fold change": "inactive: 0.011"},
      {"target": "MT-ATP6 (UniProt P00846)", "log2 fold change": "inactive: -0.082"},
      {"target": "MT-CO1 (UniProt P00395)", "log2 fold change": "inactive: -0.13"},
      {"target": "MRPL58 (UniProt Q14197)", "log2 fold change": "active: 0.365"},
      {"target": "MTA2 (UniProt O94776)", "log2 fold change": "inactive: 0.013"},
      {"target": "MTCH1 (UniProt Q9NZJ7)", "log2 fold change": "inactive: -0.172"},
      {"target": "MTX1 (UniProt Q13505)", "log2 fold change": "inactive: -0.026"}
    ]},
    {"compound": "C[C@H](Nc1ncnc2nc[nH]c12)c1cc2cccc(Cl)c2c(=O)n1-c1ccccc1 [duvelisib]", "assay": "log2 fold change, soluble protein after heating vs DMSO (PISA); higher = thermal stabilisation; K562 lysate, 10 uM; active = over 0.2 and 3.5 SD of the protein, either way, in both replicates (recomputed)", "method_in_brief": "as §1", "values": [
      {"target": "MRPL4 (UniProt Q9BYD3)", "log2 fold change": "inactive: 0.059"},
      {"target": "MRPS9 (UniProt P82933)", "log2 fold change": "inactive: 0.029"},
      {"target": "MTMR9 (UniProt Q96QG7)", "log2 fold change": "inactive: -0.042"},
      {"target": "MRPL28 (UniProt Q13084)", "log2 fold change": "inactive: 0.043"},
      {"target": "MRPL41 (UniProt Q8IXM3)", "log2 fold change": "inactive: 0.036"},
      {"target": "MRPS22 (UniProt P82650)", "log2 fold change": "inactive: 0.05"},
      {"target": "MRPL45 (UniProt Q9BRJ2)", "log2 fold change": "inactive: 0.051"},
      {"target": "MRPS18A isoform 2 (UniProt Q9NVS2)", "log2 fold change": "inactive: -0.133"},
      {"target": "MRPL50 (UniProt Q8N5N7)", "log2 fold change": "inactive: 0.045"},
      {"target": "MTIF2 (UniProt P46199)", "log2 fold change": "inactive: 0.005"},
      {"target": "MRS2 (UniProt Q9HD23)", "log2 fold change": "inactive: -0.013"},
      {"target": "MT-ND1 (UniProt P03886)", "log2 fold change": "inactive: -0.052"},
      {"target": "MRPS30 (UniProt Q9NP92)", "log2 fold change": "inactive: 0.065"},
      {"target": "MTM1 (UniProt Q13496)", "log2 fold change": "inactive: 0.004"},
      {"target": "MRPS18B (UniProt Q9Y676)", "log2 fold change": "inactive: 0.003"},
      {"target": "MRPL32 (UniProt Q9BYC8)", "log2 fold change": "inactive: 0.024"},
      {"target": "MRPS5 (UniProt P82675)", "log2 fold change": "inactive: 0.017"},
      {"target": "MSH6 (UniProt P52701)", "log2 fold change": "inactive: 0.014"},
      {"target": "MSRB2 (UniProt Q9Y3D2)", "log2 fold change": "inactive: -0.057"},
      {"target": "MTA1 (UniProt Q13330)", "log2 fold change": "inactive: -0.059"},
      {"target": "MSI2 (UniProt Q96DH6)", "log2 fold change": "inactive: -0.052"},
      {"target": "MRPL9 (UniProt Q9BYD2)", "log2 fold change": "inactive: 0.04"},
      {"target": "MRPS10 (UniProt P82664)", "log2 fold change": "inactive: 0.009"},
      {"target": "MRPS36 (UniProt P82909)", "log2 fold change": "inactive: 0"},
      {"target": "MSN (UniProt P26038)", "log2 fold change": "inactive: -0.004"},
      {"target": "MRPS28 (UniProt Q9Y2Q9)", "log2 fold change": "inactive: 0.022"},
      {"target": "MTR (UniProt Q99707)", "log2 fold change": "inactive: 0.012"},
      {"target": "MTHFD2 (UniProt P13995)", "log2 fold change": "inactive: -0.006"},
      {"target": "MRPS31 (UniProt Q92665)", "log2 fold change": "inactive: -0.015"},
      {"target": "MTFR2 (UniProt Q6P444)", "log2 fold change": "inactive: -0.022"},
      {"target": "MRPL40 (UniProt Q9NQ50)", "log2 fold change": "inactive: 0.002"},
      {"target": "MRPL54 (UniProt Q6P161)", "log2 fold change": "inactive: 0.03"},
      {"target": "MRPL44 (UniProt Q9H9J2)", "log2 fold change": "inactive: 0.003"},
      {"target": "MT-ATP6 (UniProt P00846)", "log2 fold change": "inactive: 0.058"},
      {"target": "MT-CO1 (UniProt P00395)", "log2 fold change": "inactive: 0.007"},
      {"target": "MRPL58 (UniProt Q14197)", "log2 fold change": "inactive: -0.034"},
      {"target": "MTA2 (UniProt O94776)", "log2 fold change": "inactive: 0"},
      {"target": "MTCH1 (UniProt Q9NZJ7)", "log2 fold change": "inactive: 0.016"},
      {"target": "MTX1 (UniProt Q13505)", "log2 fold change": "inactive: 0.01"}
    ]}
  ]
}
